# Percent effect of library compounds

Chains of the proteins cited; added tags and fusions are not shown. Residues count along the entry.
UniProt Q8IDJ8, 1-583: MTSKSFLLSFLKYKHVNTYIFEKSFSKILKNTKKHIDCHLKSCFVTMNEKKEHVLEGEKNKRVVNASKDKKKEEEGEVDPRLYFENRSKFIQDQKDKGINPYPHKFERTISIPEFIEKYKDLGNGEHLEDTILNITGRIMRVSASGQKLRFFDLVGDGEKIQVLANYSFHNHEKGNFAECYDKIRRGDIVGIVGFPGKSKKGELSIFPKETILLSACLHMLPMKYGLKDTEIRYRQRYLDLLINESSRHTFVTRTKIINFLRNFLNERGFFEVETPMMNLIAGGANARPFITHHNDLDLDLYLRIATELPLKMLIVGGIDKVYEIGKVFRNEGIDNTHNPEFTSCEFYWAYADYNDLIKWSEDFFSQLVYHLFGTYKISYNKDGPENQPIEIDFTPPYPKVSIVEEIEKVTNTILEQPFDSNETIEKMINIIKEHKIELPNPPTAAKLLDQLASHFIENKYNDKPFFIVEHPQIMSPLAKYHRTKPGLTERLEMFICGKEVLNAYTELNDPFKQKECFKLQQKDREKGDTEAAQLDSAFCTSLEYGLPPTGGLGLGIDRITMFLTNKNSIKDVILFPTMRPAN
UniProt A4I591, 1-473: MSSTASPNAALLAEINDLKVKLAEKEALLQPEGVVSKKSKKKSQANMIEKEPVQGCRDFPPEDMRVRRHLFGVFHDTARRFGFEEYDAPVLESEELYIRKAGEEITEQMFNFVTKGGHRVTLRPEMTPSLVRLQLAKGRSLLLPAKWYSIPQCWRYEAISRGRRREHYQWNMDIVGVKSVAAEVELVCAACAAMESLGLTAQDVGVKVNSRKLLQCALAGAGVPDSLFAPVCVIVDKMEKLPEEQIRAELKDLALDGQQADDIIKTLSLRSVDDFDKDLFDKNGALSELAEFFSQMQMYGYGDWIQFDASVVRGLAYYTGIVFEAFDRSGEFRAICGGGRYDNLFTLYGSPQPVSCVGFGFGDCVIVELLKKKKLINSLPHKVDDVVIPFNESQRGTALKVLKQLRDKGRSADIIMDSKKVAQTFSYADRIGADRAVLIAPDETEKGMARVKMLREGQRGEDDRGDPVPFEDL

Data taken from ChEMBL document CHEMBL3988442, “University of Dundee, Small-Polar-MMV Screening Library” (2021).

Leishmania in macrophages: 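Cell assay of Leishmania donovani living inside macrophages; the read-out is not stated. Compounds at 30 µM. Direction is inferred from retests: higher values go with stronger inhibition. Of about 69,000 compounds tested this way, about 1,000 (1.5%) reached 50% or more in at least one test.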
PfKRS1: 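Lysine-tRNA ligase, Plasmodium falciparum 3D7 (UniProt Q8IDJ8). Enzyme assay of the cytosolic lysyl-tRNA synthetase in 384-well plates, read by luminescence. Tested at 30 µM. Higher reads as stronger inhibition, judged from the few compounds that gave an IC50. Size under these conditions: about 69,000 compounds, about 49 of them at 50% or above in at least one test.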
LiHisRS: 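Histidine-tRNA ligase, Leishmania infantum (UniProt A4I591). Enzyme assay of histidyl-tRNA synthetase; the read-out is not stated. Compounds at 30 µM. Higher reads as stronger inhibition (inferred: compounds with an IC50 in retests scored well above the rest). The assay is labelled LdHisRS but filed under L. infantum. About 69,000 compounds were tested under these conditions; 0.6% (about 410) showed 50% or more at least once.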

The filed quantity is “Percent Effect” (%). How 0% and 100% were set is not recorded. Most values in the screen are low, and negative values occur. The compounds are a random part of those screened. Two or more numbers in one place are separate tests of the same structure; such repeats can differ widely. A dash means the value is not listed here; it may have been measured.

SMILES | Leishmania in macrophages | PfKRS1 | LiHisRS
CCOC(=O)[C@]12CCCN(Cc3nccs3)C[C@H]1CN(CCN(C)C)C2 | - | 1.45% | 14.56%
CN1CCC2(CCN(CC3CCOCC3)CC2)C1=O | - | 2.347% | 14.04%
O=C1COc2cc(C(=O)NS(=O)(=O)c3cc(Cl)ccc3Cl)ccc2N1 | 25.84% | -0.8202% | 2.632%
CCCOc1cccc(NC(=O)NC2CCc3nc(C)nn3C2)c1 (configuration not stated) | -27.75% | 2.849% | 10%
Cc1cc(C2CCC2)nc(N(C)Cc2ncccc2C)n1 | 7.822% | 9.851% | -8.571%
CC(O)CN1CCC(CNCc2cccc(Cl)c2)CC1 (configuration not stated) | 14.58% | 0.8399% | 13.16%
CC(=O)N[C@@H]1Cc2ccccc2[C@H]1Nc1ccncn1 | 7.654% | 6.568% | -28.21%
CCOCCOC(C)C(=O)Nc1ccc2[nH]c(C)cc2c1 (configuration not stated) | -4.02% | 1.104% | 27.4%
CCCNC(=O)CCNc1cncc(-n2nc(C)cc2C)n1 | 26.61% and 22.93% | 3.75% | 20.51%
CN(C)CCN1CCC2(CC1)CN(Cc1cccnc1)C(=O)CO2 | - | 4.065% | 8.182%
Cc1cn2nc(N3CCn4c(nnc4C(C)C)C3)sc2n1 | -33.92% | -7.492% | -3.125%
COc1ccc(OC)c(CNCc2ccnc(N3CCOCC3)c2)c1 | 21.84% | 4.923% | 14.29%
Cc1cc(CNC(=O)N2CCc3ccccc3C2CO)c(C)o1 (configuration not stated) | 25.22% | -0.144% | -0.9009%
Cn1nnc2c1CCN(Cc1ccccn1)C2COCc1ccccc1.O=C(O)C(F)(F)F.O=C(O)C(F)(F)F (configuration not stated) | -5.942% | - | -
Cc1ccc(C(N)c2cccc(S(C)(=O)=O)c2)c(C)c1 (configuration not stated) | - | 1.533% | -1.786%
COc1ccccc1CN1C(=O)O[C@@H]2CN(S(=O)(=O)N(C)C)C[C@@H]21 | - | 3.554% | 11.67%
O=C(O)c1ccccc1-c1ccc(CN2CCC(CO)C2)cc1 (configuration not stated) | 6.814% | -0.4976% | 11.43%
CN1CCOC(CNCc2coc(-c3ccc(Cl)cc3)n2)C1 (configuration not stated) | 19.01% | 1.137% | 0%
Cc1cccc(CN2CCC3(CCCN(C(=O)N4CCCC4)C3)C2=O)n1 (configuration not stated) | - | -0.05434% | -2.655%
O=C(O)C(F)(F)F.[H][C@@]12CCN(CCc3ccccc3)C[C@]1([H])[C@@H](CNS(C)(=O)=O)OC2 | -1.519% | - | -
CSc1ccc(CN(CCO)C(=O)CCNC(C)=O)cc1 | -18.15% | -6.013% | -1.205%
Cc1cccc(CN2CC3(CCN(C4CCOC4)CC3)OCC2=O)n1.O=C(O)C(F)(F)F.O=C(O)C(F)(F)F (configuration not stated) | 6.029% | - | -
Cc1noc([C@@H]2C[C@@H]3CCN(CC4CCOCC4)C[C@H]3O2)n1 | - | 7.679% | 22.81%
CSc1ccc(-c2nc(CN3CCC(CN)C3)c(C)o2)cc1 (configuration not stated) | 98.64% | 1.494% | 13.21%
CC(C)c1nc2c(n1C)CCN(CCCc1nc3ccccc3o1)C2 | -9.389% | 3.242% | -5.714%
O=C(Cc1ccsc1)N1Cc2nc(CN3CCCCC3)oc2C1 | - | 5.584% | 4.505%
Cc1nc(CNC(=O)NCC(F)(F)F)oc1C | -9.046% | 3.071% | 15.15%
COCCCNC(=O)c1ccn(-c2ccc3ccccn23)n1 | 46.2% | 3.23% | 23.64%
Cc1nc(CN2C[C@@H]3CN(C(=O)c4cnccn4)C[C@@H]3C2)cs1 | - | 3.83% | 13.33%
COCCn1cc(NCc2cccc3cn[nH]c23)cn1 | 32.58% | 5.872% | 30.65%
CN(Cc1cccnc1)CC1CNCc2nccn2C1 (configuration not stated) | 43.1% | -2.67% | 8.824%
COCC(=O)N1CCC2(CC1)CCN(Cc1ccccn1)C2=O | - | -4.488% | 0%
O=C(O)C(F)(F)F.O=C(O)C(F)(F)F.O=C(c1ccncc1F)N1Cc2nc(CN3CCCCC3)oc2C1 | 28.53% | - | -
CC(NC(=O)NCCNc1cccc(F)c1C#N)c1cccs1 (configuration not stated) | 8.908% | 3.815% | 8.824%
Cc1ccc2nc(CNc3ccccc3C(=O)NC3CC3)cn2c1 | 18.05% | 10.13% | 21.51%
Br.O=C(CN(C1=NCCCC1)c1ccccc1)c1ccc2c(c1)OCCO2 | 3.695% and 22.66% | - | -
O=c1[nH]nc2nc(N3CCSCC3)ccn12 | 20.37% | 4.767% | 13.56%
Cc1cnn(CC(C)NCC(=O)NCCc2cccs2)c1 (configuration not stated) | -3.369% | 0.4677% | 18.31%
CN1CCC(NC(=O)NCCNc2ccccn2)CC1 | 24.58% | 2.541% | 21.54%
Cn1cc(-c2nc(CN3CCOC(Cn4cncn4)C3)cs2)cn1 (configuration not stated) | -18.45% | 0.8036% | 8.036%
COc1cccc(CCC2CCCN(C(=O)C3=NN(C)C(=O)CC3)C2)c1 (configuration not stated) | 25.18% | -1.711% | 7.692%
CCOc1ccc(C#N)cc1NCC(=O)NC(=O)Nc1ccccc1 | 20.66% | -0.03405% | 5.357%
O=c1cc(N2CCNCC2)cnn1CCCn1cccn1 | 7.073% | 3.567% | 10.26%
Cc1nsc(NC(=O)NC2(CN3CCOCC3)CCCC2)n1 | -11.26% | 1.434% | 6.383%
CC(C)c1cc(N2CCN(c3ccc(O)cc3)CC2)n2nccc2n1 | 42.24% | 6.453% | 34.29%
CC(C)NC(=O)NC(=O)C(C)N1CCN(C2CCN(C(C)C)CC2)CC1 (configuration not stated) | 12.75% | 9.396% | 15.08%
Cc1cccc(NC(=O)N2CCCn3cnc(CN(C)C(C)C)c3C2)c1.O=C(O)C(F)(F)F | -5.668% | - | -
CC1(C)Cc2ccccc2-c2nc(NCCO)[nH]c(=O)c21 | 8.564% | 5.978% | 20%
O=C(O)C(F)(F)F.[H][C@]12CN(Cc3ccccc3Cl)C[C@@]1([H])OCCN(C(C)=O)C2 | 24.14% | - | -
COCCCN1CC2(CCCN(c3ncnc4[nH]cnc34)C2)CCC1=O (configuration not stated) | 10.89% | -1.347% | 6.667%
Cn1c(=O)[nH]c(=O)n2c(CC(=O)Nc3c(Cl)cccc3Cl)cnc12 | 22.57% | 2.591% | 2.759%
CNCC(=O)N1CC(c2cc(Nc3nc(C)cs3)nc(C)n2)C1.Cl | 17.16% | - | -
[H][C@]12CC[C@]([H])(CN(S(=O)(=O)N(C)C)C1)N(C(=O)c1cc[nH]c1C)C2 | -7.731% | - | -
CN(C)Cc1cc(=O)n2c(n1)CN(C(=O)Cc1ccsc1)CCC2 | - | 6.851% | 4.717%
CN1CC2(CCCN(c3cc(N4CCCCC4)ncn3)C2)OC1=O (configuration not stated) | -13.09% | -4.167% | 33.33%